Screen size: about 52,000 sequences; about 210 (0.4%) were called active.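 The calls were made as follows: active = gene whose silencing raises cell survival under the drug, median off-target-corrected z-score across its silencing RNAs 2 or more; inactive = the rest.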 The list shows a part of the results.

This assay in a line: Resistance to Poly (ADP-Ribose) Polymerase inhibitor: Gene Identification via Genome-wide siRNA Screen. Particulars: mouse BRCA2 R2336H ES cells, olaparib, CellTiter-Glo viability; hits give high values. A digest of the protocol: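 Mouse BRCA2 R2336H ES cells were reverse-transfected with siRNA (20 nM final), treated at 48 h with 500 nM olaparib, and read by CellTiter-Glo after 72 h. Scores: MAD-based z per siRNA, median per gene, seed off-target correction.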
For the sequence GUUUGGCUUAGCUGCUUUCTT against Olfr494, the z-score is inactive: 1.98.
With CCACUGGUCCAUCCAAAUCTT against Cyp21a1 the figure was inactive: 0.00949; with “GCUCCUACAGAGAAUAAGATT against 1810057B09Rik”, inactive: 1.78.
With GCGAACAUCACGUCCGAUGTT against Minpp1 the figure was inactive: 0.287; with “GGACAAAUUGAGAAAGACATT against C130026L21Rik”, inactive: -2.63; with GUUACUACAACAGCUACUATT against Krtap16-4, inactive: -0.26.
Take GGAGCUUCGGGAGAUGAUUTT against Fdxr: the z-score is inactive: -2.18.
In the case of GGUGUCCUCAAAGACUUUCTT against Pgc, the z-score was inactive: -0.652.
With CGAGCCUGACUUCAAUCCUTT against Bsf3 the figure was inactive: 0.374.
With “GGGCAAAUGAUAUAAGGAUTT against 2410011G03Rik” the figure was inactive: -2.2.
With “GGUUCAAGGACACUUUCACTT against 0610012G03Rik” the figure was inactive: 0.261; with GGUAUCUAAGUGCUGCACUTT against Baiap2, inactive: 1.34; with GGCAAAAUCUCAUCAGUCCTT against BC026978, inactive: 1.52.
In the case of GCUUGUUGCAUGCUUAUCUTT against Tiaf2, the z-score was inactive: -0.201.
With GCCAUAUCCUUCAAGAGACTT against Cstb the figure was inactive: 1.62.
The result for “GGAAAUCUGAAGAAUCAAGTT against 2700019D07Rik” reads inactive: 0.228.
The result for GGACCUAUGCAGCACUAAATT against Ppp1r11 reads inactive: 1.06.
Turning to CGGACUCCUGACAUUAUAATT against Cd33, the z-score was inactive: 0.735.
The result for “GGAAAACUUCACUUUCUUCTT against D12Ertd551e” reads inactive: 0.14; that for “GGCAACAGUGAAAGAUGAATT against C730036D15Rik”, inactive: -1.05; that for CAGCAAAAACGACCCACCATT against Eef1a1, inactive: -0.206.
The result for GGAGGAAAAAGAGAAAAAUTT against Slc16a2 reads inactive: 2.94.
The result for “GGUUUCAAGAAAGAUAUGATT against C230078M14” reads inactive: 0.104.
CCAAGGCCGUGUCAUUCAUTT against Adssl1: the z-score was inactive: 0.152.
Consider “GCGUGCAGGGUUUUAGCUATT against 1190006E07Rik”, for which the z-score is inactive: -1.25.
Consider CGAAUACUACGCCAAGAUUTT against Abca2, for which the z-score was inactive: 0.605.
With GCUCCAAGUGUUAUUAGUCTT against Rgl2 the figure was inactive: -0.186; with CCUUUAGAAGUAAACCUCGTT against Usp16, inactive: -0.208.
With GCGAGAGUUUUUCUUCAACTT against Hoxc11 the figure was inactive: 0.608.
The result for CCUAUCUCCCUGUUCGAUATT against Rab36 reads inactive: 0.905.
On to GGUUUUCAGAUCUAGGAUUTT against Casp6, for which the z-score is inactive: 2.55.
With GGUGAACCAAACAACAAACTT against Sele the figure was inactive: 0.424; with AGUAUACGAUGACUAUUUCTT against Zfp51, inactive: 0.0774.
The result for GGUUAUCAAACAGGUGUUGTT against Aldh3b1 reads inactive: 0.482; that for GGUUCUGUUGUGUGACUAUTT against Mme, inactive: -0.309; that for “GGCCUGUGACAUUCAAUGCTT against 4432405B04Rik”, inactive: -0.31.
With “GCCAAGACCAUUCAGCCUUTT against 1110003A17Rik” the figure was inactive: 2.59; with GGCUGAGAAUCUGGUUGAGTT against Casp12, inactive: -0.011; with GGGUAAAGUUGUCAGUGGUTT against Cd4, inactive: -0.42.
As for “GGAUUUCAUCUGGUACCUGTT against C130022P09Rik”, the z-score was inactive: -0.733.
With GGACCUAGAGCGGAGUCUATT against Golga1 the figure was inactive: -1.34; with GGACAUAUUCCUGAAUGGCTT against Bcdo2, inactive: -0.0575.
The result for GGAGAAUCCUGAAACAGGGTT against Kif3c reads inactive: 0.453; that for GCAGCUUAUCACAAUGCUGTT against Asb3, inactive: 2.12.
As for CCCAAUCGGUUAAUUGUUGTT against Vcp, the z-score is inactive: -0.861.
The result for GCCAGUUAGGGAACUACGATT against AI428795 reads inactive: 1.11; that for CGCAAGAUUGCAUUGUGUATT against BC049354, inactive: -0.644.
GGCAUGAACACUGAGGAGUTT against BC038881: the z-score was inactive: 0.377.
With GCCUAGGUAGUGGAGAUGATT against Nkd1 the figure was inactive: -1.84; with CCUUGGCACAUGGAUCUAUTT against Tomm22, inactive: -1.86.
With GGUGGAAGACGUACUUCCUTT against Nfatc1 the figure was inactive: 0.641; with GGAGUAGCAAAGAACUGCUTT against Arpc4, inactive: -0.783; with GGAAAUUUCAGAGCUCAAGTT against Trpc2, inactive: -0.445.
On to “GGGUCUACCUGACAAUAAATT against C130007D14”, for which the z-score is inactive: 0.855.
As to GGCUUUGUAUAUUCUGUUGTT against Fkbp6, the z-score was inactive: -0.242.
The result for CCUGAAAGUCGUUUAUCGCTT against Il7r reads inactive: -0.0595; that for GGGCUGAAGUGAAAACAGCTT against Mmp8, inactive: 0.835; that for CGGCAGUCCUUGUUAGGUATT against Olfr374, inactive: -0.555.
With “GAGCAGCUCUUUAGCCAGGTT against 1110007C05Rik” the figure was inactive: -0.933.
The result for GGACAGUGAAUCUAUUGCUTT against Herc1 reads inactive: 0.332; that for GGAUGAAGUAGACUUAGAUTT against Depdc1b, inactive: -0.769; that for CCUUACCCUGUUAUACAAGTT against C86302, inactive: 1.7.
Regarding GCACUAUUUUGGAUUAGUCTT against Usp12, the z-score is inactive: -0.239.
For the sequence GGAGGCAGCAAAAAGGUUGTT against Olfr1110, the z-score was inactive: -1.28.
Regarding GCCGAAGUCGACAAUAAUCTT against Gm1128, the z-score is inactive: -0.306.
The result for GGGUGAUCGCACGAUUGAGTT against Casq2 reads inactive: 0.161.
The result for “GGUCCUUAAGUCCUUUGACTT against C230004F18Rik” reads inactive: -0.124; that for “GGCCCGGUAAAGUGGUAAGTT against 2310040A13Rik”, inactive: -1.48; that for “GCAGUACGAAAUGGUAUACTT against 5430439G14Rik”, inactive: -1.81.
The result for GGCAUAUCGAGUGCUCAGUTT against Dnajc4 reads inactive: -0.923.
Consider CCAAUUACGGAGAUUGGAATT against Tm4sf6, for which the z-score is inactive: -0.611.
With “CCGCGUCUGUAUUUGAUAUTT against C330023F11Rik” the figure was inactive: -1.51.
The result for “GGCCAGCUUUUCCUAGAUGTT against C030006K11Rik” reads inactive: 0.0929; that for “CGUAGUGCGCUUCAUUCAATT against 1810047C23Rik”, inactive: 0.0596.
With GCCACAACAAACCUACGACTT against Xpc, the z-score was inactive: 0.138.
With GGACAACAGCUGAAGAACUTT against Slc35a1 the figure was inactive: -1.33.
With GCUGAUCACACCAUCCCUATT against Hccs the figure was inactive: 0.97; with CCUAGCAACAUUCUUUAUGTT against Rps6ka3, inactive: 0.259.
With CGUAUCGAUGUGGAUAAUATT against Tpst1, the z-score was inactive: 0.15.
With “GGCAAUGAUCUUAUUCCAATT against 4921521F21Rik” the figure was inactive: -1.3; with GGCUGAAGAUGGAGAGAACTT against Tbca, inactive: -2.5.
The result for GGGUUUCACCCAAAGCCUUTT against Zfp354c reads inactive: -0.163; that for GGUAUCCACAGUAAAAUUGTT against Pcp4, inactive: -0.523; that for GCUGCAAUAGUCACUGGAGTT against H2-K1, inactive: -1.27.
The result for UAGUCGGCCACUUCAGAGATT against Olfr825 reads inactive: 0.46; that for “GGGCAGGAUUGUCUGUUUATT against 1110004D19Rik”, inactive: -0.356.
For the sequence GCUGACCUACAUCUCGAAGTT against Plekha2, the z-score is inactive: 1.32.
With GGUGAAGAAGACUCAUGAATT against Gnb1l the figure was inactive: 2.6; with CCUUGGUACUUCGAGUUUATT against Gpr87, inactive: -0.739.
The result for “GCAUGUUAAGGGCAAUGGUTT against 4931440F15Rik” reads inactive: -0.542; that for “GCCAAUCUCUGCUAGAUACTT against D11Ertd18e”, inactive: 0.433.
Consider GGAGUUGGCUAAGCUCUCATT against Elmo2, for which the z-score is inactive: -0.661.
With GCCAACCCUGAAAACCCUUTT against Gc the figure was inactive: 0.35; with CCUUCUGGAGUACAUAUCCTT against Trip6, inactive: 1.04; with GGAAGUAUGCAGAAGACGATT against Sertad4, inactive: 0.0137.
With GGGUCUGGUUUAUUCAUGUTT against Zic1 the figure was inactive: 0.685; with CGGCAAGCCCAAAAAGGUCTT against Dlx3, inactive: 1.63; with “GGACAUUUUCUUUUCACGUTT against 8030451K01Rik”, inactive: -0.0614.
The result for GGAGGAAGAAAUGUUUCGCTT against Slc9a8 reads inactive: 1.9.
Consider CCUGAUGCACGUGCUAAAGTT against Ripk1, for which the z-score is inactive: 2.72.
On to CCACCAAUGAUUUGAUGCATT against Gpr75, for which the z-score is inactive: -0.29.
For the sequence CGAAAAGCCUCAUUUCAUCTT against Clp1, the z-score is inactive: -0.062.
With GCAUUUAAGGACCUUGUAATT against Olfr813 the figure was inactive: -0.172.
With CCUCCAUUGACGCAAUAUCTT against Mvk the figure was inactive: 0.184.

The record behind these values is PubChem BioAssay AID1347423 (Functional Genomics Laboratory (NCATS/FGL), 2020).
